Measurements: PMC12431657, “Discovery and mechanistic insights of dibenzoylmethane as a broad spectrum inhibitor of coronavirus” (PLOS Pathogens, 2025)
Structures can show the parent of a compound that is named as a salt. Where two headings read alike, the source gives them in different places. Screen size: about 3,300 compounds; about 95 (3%) showed an effect of 50% or more. The list shows a part of the results.

System: HCoV-229E
Parameters: species or system Huh-7; HTS, protection from HCoV-229E induced cell death, luminescent cell viability (CellCounting-Lite 2.0), inhibition rate
Conditions: 24 h post infection, 1 h compound pre-incubation, 10 µM, inhibitor

SMILES	229E Inhibition rate	229E Inhibition rate (229E Inhibition rate, 24 h)
CCCCC/C=C\C/C=C\C/C=C\C/C=C\CCCC(=O)O [Arachidonic acid]	11.1%	
O=c1cc(-c2ccc(O)c(O)c2)oc2c([C@@H]3O[C@H](CO)[C@@H](O)[C@H](O)[C@H]3O)c(O)cc(O)c12 [Orientin]	55%	
CC(=O)CCc1ccc(O[C@@H]2O[C@H](CO)[C@@H](O)[C@H](O)[C@H]2O)cc1 [Raspberry ketone glucoside]	19.3%	
CC[C@H]1CN2CC[C@H]1C[C@H]2[C@H](O)c1ccnc2ccc(OC)cc12 [Hydroquinine]	0%	
COc1cc(-c2cc(=O)c3c(O)c(OC)c(O)cc3o2)ccc1O [Jaceosidin]	25.6%	
NC1CCN(c2nc3c(cc2F)c(=O)c(C(=O)O)cn3-c2ccc(F)cc2F)C1 (stereo not shown) [Tosufloxacin (tosylate hydrate)]	0%	
CC(C)(O)[C@H]1Cc2cc3ccc(=O)oc3cc2O1 [Nodakenetin]	7.6%	
O=c1cc(-c2ccccc2)oc2cccc(O)c12 [5-Hydroxyflavone]	10.5%	
COc1cc2c(cc1O)CCN[C@]21CS[C@@H]2c3c(OC(C)=O)c(C)c4c(c3[C@H](COC1=O)N1[C@@H]2[C@H]2c3c(cc(C)c(OC)c3O)C[C@@H]([C@@H]1C#N)N2C)OCO4 [Ecteinascidin 770]	23.4%	
CC(O)CN (stereo not shown) [1-Aminopropan-2-ol]	18.5%	
NCCCCNCCCN [Spermidine (hydrochloride)]		13.6%
C[C@@H]1O[C@@H](O[C@@H]2[C@@H](O)[C@H](O)[C@@H](CO)O[C@H]2c2c(O)cc(O)c3c(=O)cc(-c4ccc(O)cc4)oc23)[C@H](O)[C@H](O)[C@H]1O [Vitexin-2"-O-rhamnoside]	8.9%	
COc1ccccc1C=O [2-Methoxybenzaldehyde]	9.8%	
CC(=O)OC(C)C(C)C(=O)OC[C@@]12[C@H]3C[C@]4(C)C(=CC[C@@H]5[C@@]6(C)CC[C@H](O[C@@H]7O[C@H](C(=O)O)[C@@H](O[C@@H]8O[C@H](CO)[C@@H](O)[C@H](O)[C@H]8O)[C@H](O)[C@H]7O[C@@H]7OC[C@@H](O)[C@H](O)[C@H]7O)[C@@](C)(CO)[C@@H]6CC[C@]54C)[C@@H]1CC(C)(C)[C@H](O3)[C@@H]2O (stereo partly shown) [Sodium aescinate]	19.6%	
OC[C@H]1O[C@H](OC[C@H]2O[C@H](OC[C@H]3O[C@H](OC[C@H]4OC(O)[C@H](O)[C@@H](O)[C@@H]4O)[C@H](O)[C@@H](O)[C@@H]3O)[C@H](O)[C@@H](O)[C@@H]2O)[C@H](O)[C@@H](O)[C@@H]1O (stereo partly shown) [Isomaltotetraose]	10%	
CCCCCCCCCCCCC/C=C/[C@@H](O)[C@@H](N)CO [D-erythro-Sphingosine]	27.8%	
CCCC[C@H](N)C(=O)O [L-Norleucine]	10.5%	
O=C(O)[C@H]1O[C@@H](Oc2cc(O)c3c(=O)cc(-c4ccccc4)oc3c2)[C@H](O)[C@@H](O)[C@@H]1O [Chrysin-7-O-glucuronide]	17.8%	
CCC(C)(O)C(=O)O (stereo not shown) [2-Hydroxy-2-methylbutanoic acid]	0%	
COc1cc2c(cc1OC)C(Cc1ccc(O)cc1)N(C)CC2 (stereo not shown) [Armepavine]	8.9%	
Nc1ccccc1C(=O)C[C@@H](N)C(=O)O [D-Kynurenine]	9.4%	
O=c1c2c(O)cc(O)cc2oc2c(O)ccc(O[C@@H]3O[C@H](CO)[C@@H](O)[C@H](O)[C@H]3O)c12 [Norswertianolin]	6.1%	
COc1cc(-c2cc(=O)c3c(O)cc(O)cc3o2)ccc1O [Chrysoeriol]	9.8%	

Nothing new here: entries from further up.
SMILES	229E Inhibition rate	229E Inhibition rate (229E Inhibition rate, 24 h)
CC(=O)OC(C)C(C)C(=O)OC[C@@]12[C@H]3C[C@]4(C)C(=CC[C@@H]5[C@@]6(C)CC[C@H](O[C@@H]7O[C@H](C(=O)O)[C@@H](O[C@@H]8O[C@H](CO)[C@@H](O)[C@H](O)[C@H]8O)[C@H](O)[C@H]7O[C@@H]7OC[C@@H](O)[C@H](O)[C@H]7O)[C@@](C)(CO)[C@@H]6CC[C@]54C)[C@@H]1CC(C)(C)[C@H](O3)[C@@H]2O (stereo partly shown) [Sodium aescinate]	19.6%	
OC[C@H]1O[C@H](OC[C@H]2O[C@H](OC[C@H]3O[C@H](OC[C@H]4OC(O)[C@H](O)[C@@H](O)[C@@H]4O)[C@H](O)[C@@H](O)[C@@H]3O)[C@H](O)[C@@H](O)[C@@H]2O)[C@H](O)[C@@H](O)[C@@H]1O (stereo partly shown) [Isomaltotetraose]	10%	
CCCCCCCCCCCCC/C=C/[C@@H](O)[C@@H](N)CO [D-erythro-Sphingosine]	27.8%	

(next part)

SMILES	229E Inhibition rate	229E Inhibition rate (229E Inhibition rate, 24 h)
O=C(O)CP(=O)(O)O [Phosphonoacetic acid]	13%	
O=C(O[C@H](Cc1ccc(O)c(O)c1)C(=O)O)C1=Cc2cc(O)c(O)cc2[C@H](c2ccc(O)c(O)c2)[C@H]1C(=O)OC(Cc1ccc(O)c(O)c1)C(=O)O (stereo in doubt) [Rabdosiin]	40.7%	
C[C@@H]1O[C@@H](O[C@H]2[C@H](OC(=O)[C@]34CCC(C)(C)C[C@H]3C3=CC[C@@H]5[C@@]6(C)C[C@H](O)[C@H](O[C@@H]7O[C@H](CO)[C@@H](O)[C@H](O)[C@H]7O)C(CO)(CO)[C@@H]6CC[C@@]5(C)[C@]3(C)C[C@H]4O)OC[C@H](O)[C@@H]2O)[C@H](O)[C@H](O)[C@H]1O[C@@H]1OC[C@@H](O)[C@H](O)[C@H]1O [Deapioplatycodin D]	36.2%	
COc1cc2c(cc1OC)[C@@H](Cc1ccc(O)c(Oc3cc4c(cc3OC)CCN(C)[C@@H]4Cc3ccc(O)cc3)c1)N(C)CC2 [Liensinine]		44.3%
Cc1cccc2c3c(ccc12)C(=O)C(C(C)CO)=C(O)C3=O (stereo not shown) [Danshenxinkun A]	8.5%	
C=C[C@]1(C)CC[C@@H](C(=C)C)C[C@H]1C(=C)C [β-Elemene]	20.3%	
COC(=O)[C@@]12OC[C@]34[C@H]([C@@H](O)[C@@H]1O)[C@@]1(C)CC(=O)C(O)=C(C)[C@@H]1C[C@H]3OC(=O)[C@H](OC(=O)/C=C(\C)C(C)C)[C@@H]24 [Bruceantin]	15.8%	
CC(C)CC(=O)C(=O)O [4-Methyl-2-oxopentanoic acid]	8.6%	
C/C1=C\CC(C)(C)/C=C/C(=O)/C(C)=C/CC1 [Zerumbone]	24.5%	
C[C@]1(C(=O)O)CC[C@]2(C)CC[C@]3(C)C(=CC(=O)[C@@H]4[C@@]5(C)CC[C@H](O[C@@H]6O[C@H](C(=O)O)[C@@H](O)[C@H](O)[C@H]6O[C@@H]6O[C@H](C(=O)O)[C@@H](O)[C@H](O)[C@H]6O)[C@](C)(CO)[C@@H]5CC[C@]43C)[C@@H]2C1 [Licoricesaponin G2]	21.5%	
CCCCCCCCCC(=O)O [Decanoic acid]	8.6%	
C1CSCSC1 [1,3-Dithiane]	4.6%	
Cc1cn([C@H]2C[C@H](O)[C@@H](CO)O2)c(=O)nc1N [5-Methyl-2'-deoxycytidine]	8.8%	
C/C1=C\CC[C@]23O[C@H]2[C@@H](OC3=O)c2c(C)coc2C1 [Linderane]	13.6%	
OCc1ccccc1O [Salicyl alcohol]	51.5%	
Oc1cc(O)c2c(c1)O[C@H](c1cc(O)c(O)c(O)c1)[C@@H](O)C2 [(+)-Gallocatechin]	54.1%	
OC[C@@H](O)[C@@H](O)[C@@H](O)CO [Ribitol]	13.2%	
Nc1ncnc2c1ncn2[C@@H]1O[C@H](COP(=O)(O)O)[C@@H](O)[C@H]1O [Adenosine 5'-monophosphate monohydrate]		14.6%
COc1ccc(C2COc3cc(O)ccc3C2)c(O)c1OC (stereo not shown) [Isomucronulatol]	9.8%	
COc1c2ccoc2c(OCC(O)C(C)(C)O)c2oc(=O)ccc12 (racemic) [(Rac)-Byakangelicin]	7.9%	
Oc1ccc2c(c1)OC[C@H]1c3cc4c(cc3O[C@@H]21)OCO4 [(-)-Maackiain]		10.3%
C[C@@H](O)[C@@H](C)O [(2R,3R)-Butane-2,3-diol]		7.5%
O=S(=O)(O)CCO [Isethionic acid sodium salt]	0%	
